# Reference: PubChem BioAssay AID1347426 (Functional Genomics Laboratory (NCATS/FGL), 2020)
# Among all 31,000 sequences or so, about 1,400 (4.5%) were called active.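 How the source made its calls: active means median seed-adjusted z-score above 1 or below -1; inactive means the rest.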 Some of the results follow.
# Experiment: Novel Modifiers of Survival Motor Neuron (SMN) Protein: Gene Identification via Genome-wide siRNA Screen;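 further: luminescence tracks full-length SMN protein made from the SMN2 reporter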
# Conditions: HEK293T SMN2-luciferase reporter, siRNA knockdown, 72 h; actives lie on both sides
# How it was run: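 Each of three siRNAs per gene is reverse-transfected (1 pmol) into reporter HEK293T cells whose luciferase output tracks SMN protein level. After 72 h culture, ONE-Glo luminescence is control-normalized, log10-transformed and MAD-standardized; Common Seed Analysis deprioritizes seed-driven hits.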
row,Sequence,median seed-adjusted z-score
1,CUUGGUGCCUGGACACUAATT against CDC23,inactive: 0.0112
2,GGUGGAAUCCUACUCAGAATT against UBE2R2,inactive: 0
3,GUCUCAGCAUUGAUCGAUATT against AGTR1,inactive: 0.106
4,CUCCGUUCCUGGUGUAUAATT against CLIC2,inactive: -0.0124
5,GAACUGCAGCAAUCACAAATT against HYAL1,inactive: -0.163
6,GGCUUCUUGUCCAACCCUATT against CILP,inactive: 0.0436
7,GACCGGACUCUGACACCAATT against MSC,inactive: -0.208
8,AGGAAAUUCUGGGUCUUGATT against MSRA,inactive: -0.0316
9,GAUUCACAUUAACCAUAAATT against CRHBP,inactive: -0.0443
10,GCCCUGUGCUAUCAGAGGATT against SPIB,inactive: 0.0726
11,ACCUGUCCUUCGGCCUGUATT against HAS3,inactive: -0.179
12,GGGUAGCUUUGAGGAGGAUTT against SNX33,inactive: -0.246
13,CGUGGACCACUAUCCCAUUTT against RNF123,inactive: 0
14,CGCAUCCAAGAGUACCUUUTT against ZNF229,inactive: -0.497
15,CCAAGAAGAUGAGGCUAAATT against GABRA2,inactive: -0.272
16,GAAUAUAUCUUAUCGCUAATT against TAAR1,inactive: 0.0724
17,ACAUUGUGGUAGCCUUGUATT against LYN,inactive: -0.178
18,GGAGAAGAUUGACAGCAUUTT against STX17,inactive: 0.00965
19,GGUUACUGGUAGGAAUAAATT against TGFA,inactive: -0.22
20,CGAUUAGUGUCAAAGGCUUTT against MMP7,inactive: 0.0315
21,CCUUGAUAGAUGUUACCAATT against ASAH1,inactive: 0.421
22,CCACAAUAUCUCUAACAGATT against GUCY1A2,inactive: -0.186
23,CGCAUUUGGUGGACCCAAATT against CDKN1B,inactive: 0.244
24,GGUCUGUUCUUCUUACAGATT against PRKCB1,inactive: 0.0463
25,CUGCAGCUUUUAUCACAAATT against SLC25A33,inactive: -0.0252
26,UUAUGACAGUUGAAGCUUATT against NDUFC2,inactive: -0.0481
27,GGAAGGUUUUUCAUUGACATT against KCTD16,inactive: 0.00219

row,Sequence,median seed-adjusted z-score
1,CCUGCCUACUGGAUGCUUATT against XBP1,inactive: 0.387
2,GGCCUUCGUGUACAUCAAUTT against SUV39H1,inactive: -0.0775
3,CUCUGACUGUCACGAAUUATT against MTMR2,inactive: 0.495
4,GAAUCCGGACAAUCAGAUATT against NFIX,inactive: 0.481
5,GCAGGUUUAUCAAACAGAUTT against IHPK3,inactive: -0.173
6,GAGGGACUAUUUCACGAAATT against PARD3B,inactive: 0.306
7,GGAAAUCAUCUAUCGGUAUTT against ALOX15,inactive: 0.0369
8,GCAAAACCCGUUCGACAAATT against FZR1,inactive: 0.729
9,GGACAUGAGGAUAUAAGAATT against NTN4,inactive: 0.462
10,UCUUUUCUCUGUCAGCGAATT against PLA2G2E,inactive: -0.37
11,GGCAGUACUAUACAACUGATT against USH2A,inactive: 0.0673
12,GGAGCUCCUGUAUAAAGAATT against TOR3A,inactive: 0.225
13,CAGCUGGGUUGGACUGAUATT against CYBRD1,inactive: 0.623
14,CAACUGGAUGAACUACUAATT against DNAJC1,inactive: 0.134
15,GGAGUUCUGUAACUCACUUTT against SLC38A2,active: -1.04
16,GCCGUGACUUCAUAGAGGATT against SETDB1,inactive: 0.0517
17,CGGCUAUGCGAGGAUCAAATT against KIF20A,inactive: 0.906
18,CCCUCGACAGAGUCAGUUUTT against NPC1,inactive: -0.195
19,GUAAGAAGAGUGAAAGCAATT against ZNF276,inactive: 0.318
20,UGGUUAAAGCGGAACCAGATT against NDUFA5,inactive: -0.0429
21,CGUUUGAUAAGAACAACUATT against SLC37A1,inactive: -0.102
22,GCAGGUCACUGUACAGUCUTT against PCDHA11,inactive: 0.582
23,AGUUCGAGCUGGAGAACGATT against CHST12,inactive: 0
24,UCAGUGCCCUUGUAUCAAATT against CYP4F2,inactive: -0.387
25,GGAGUGCGAUGCAAAGAUATT against EMR1,inactive: 0.255
26,CCAUAGUCAAAGGAACUAUTT against IKZF5,inactive: 0.399

# Two entries picked at random from the list so far, as already listed:
row,Sequence,median seed-adjusted z-score
9,GAUUCACAUUAACCAUAAATT against CRHBP,inactive: -0.0443
22,CCACAAUAUCUCUAACAGATT against GUCY1A2,inactive: -0.186
